These are yes or no findings as the source states them, for the method shown. In cells and extracts the contact can be indirect. Some entries that bind do so weakly or less than the wild type.
Molecular target: wild-type hERG-GFP (Kv11.1 alpha subunit with GFP fused to the C-terminus) (human) (UniProt Q12809)
Test: co-IP; HEK293T co-transfected with WT-HERG-GFP and untagged WT- or S981Lfs-HERG; lysis buffer 5 mM EDTA, 250 mM NaCl, 50 mM HEPES, 0.1% NP40; IP with anti-GFP antibody and protein A/G plus, blot with anti-hERG antibody

Protein sequences, listed by entry. Tags and fused reporters are not part of them.
UniProt Q12809: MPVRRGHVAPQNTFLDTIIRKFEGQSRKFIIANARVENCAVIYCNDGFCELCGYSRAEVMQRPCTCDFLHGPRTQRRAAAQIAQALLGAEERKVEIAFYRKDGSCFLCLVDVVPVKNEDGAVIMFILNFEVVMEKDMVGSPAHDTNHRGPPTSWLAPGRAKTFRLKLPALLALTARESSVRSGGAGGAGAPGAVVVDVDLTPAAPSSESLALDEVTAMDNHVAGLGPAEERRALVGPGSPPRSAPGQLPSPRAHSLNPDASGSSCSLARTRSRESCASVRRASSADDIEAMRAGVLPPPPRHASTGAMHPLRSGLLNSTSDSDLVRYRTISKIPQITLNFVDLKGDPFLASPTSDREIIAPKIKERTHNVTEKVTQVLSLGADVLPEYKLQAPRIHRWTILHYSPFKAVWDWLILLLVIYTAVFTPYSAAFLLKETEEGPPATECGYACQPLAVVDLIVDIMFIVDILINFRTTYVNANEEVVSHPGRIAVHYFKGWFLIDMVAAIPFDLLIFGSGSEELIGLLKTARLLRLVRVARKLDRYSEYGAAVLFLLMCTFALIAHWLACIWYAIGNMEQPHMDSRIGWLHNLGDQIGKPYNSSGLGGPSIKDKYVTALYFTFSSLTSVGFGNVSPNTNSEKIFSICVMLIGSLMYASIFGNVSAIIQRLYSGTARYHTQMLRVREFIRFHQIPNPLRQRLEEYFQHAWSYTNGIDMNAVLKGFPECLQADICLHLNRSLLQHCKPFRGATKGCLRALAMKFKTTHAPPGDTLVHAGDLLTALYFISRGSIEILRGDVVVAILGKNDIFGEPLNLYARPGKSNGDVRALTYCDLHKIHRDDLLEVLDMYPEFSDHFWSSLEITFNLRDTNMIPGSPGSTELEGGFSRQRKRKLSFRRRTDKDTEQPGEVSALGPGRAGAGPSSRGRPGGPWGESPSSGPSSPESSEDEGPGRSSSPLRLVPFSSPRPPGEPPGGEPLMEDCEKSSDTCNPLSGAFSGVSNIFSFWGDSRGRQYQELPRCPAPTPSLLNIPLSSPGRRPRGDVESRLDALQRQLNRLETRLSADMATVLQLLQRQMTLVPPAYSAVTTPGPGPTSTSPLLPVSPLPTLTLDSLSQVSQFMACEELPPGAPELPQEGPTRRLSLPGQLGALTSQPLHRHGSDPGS

## wild-type hERG, untagged (Kv11.1 alpha subunit) (from UniProt Q12809 1-1159)
  binding: binds
